Source: patent US5374713A, “Peptide inhibitors of phospholipase A2 purified from inflammatory sites” (Teijin Limited, priority 1990, dated 1994)
At least one peptide structure holds a part that was inferred or is arguable (an end, a ring closure or a residue). Ends that are not written are not given here.

Target: T1, phospholipase A2 from rat inflammatory sites (Rattus norvegicus, UniProt P14423)
T1 construct: rat inflammatory sites (Chang et al., J. Biochem., 102, 147-154, 1987); from tissue
T1 sequence (P14423 22-146): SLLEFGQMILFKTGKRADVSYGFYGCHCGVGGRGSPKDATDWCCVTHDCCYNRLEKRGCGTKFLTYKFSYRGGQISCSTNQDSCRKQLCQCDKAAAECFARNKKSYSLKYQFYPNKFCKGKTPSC
Assay: Determination of inhibitory activity against phospholipase A2 (rat inflammatory sites)
Type: biochemical
Description: The activity-measuring system was prepared by adding distilled water to 100 mM Tris-HCl (ph 9.0), 4 mM calcium chloride, 0.1 mM phosphatidylethanolamine (2,000 dpm/nmol), and 10 μl sample to adjust the total volume to 240 μl, and finally 10 μl of 0.1 ng/μ1 phospholipase A2 was added. The phospholipases A2 used were from human inflammatory sites (the joint fluid from patients with rheumatoid arthritis) (Hara et al., J. Biochem., 104, 326-328, 1988), rat inflammatory sites (Chang et al., J. Biochem., 102, 147-154, 1987), and porcine pancreas (Boehringer Manheim Co.). Phosphatidylethanolamine was purified from Escherichia coli cultured in a medium to which acetic acid was added.
The reactions were conducted at 37° C. with stirring for 10 minutes. The termination of the reaction and the extraction of fatty acids generated were carried out by the Dole's method (Dole et al., J. Biol. Chem., 235, 2595-2599, 1960) and the extracted fatty acid was determined with a scintillation counter.
The lyophilyzed sample obtained in Example 1 was dissolved again in 50% acetone-0.1% trifluoroacetic acid to adjust the concentration to 10 mg/ml. The solution was further diluted stepwise with the same buffer and the inhibitory activity of phospholipase A2 from inflammatory sites was determined at individual concentrations.

In the case of QKDAPDHQELNLDVSLQLPSR, the “amount of the protein needed for 50% inhibition of 1 ng enzyme activity” value is reported as “about 300 ng”.
